Here are results for 13 compounds from PubChem BioAssay AID256 (DTP/NCI, 2004).

The structures appear in SMILES notation. The list does not hold the whole screen: it gathers tests that were run many times, whatever their T/C, doses with no T/C, and many T/C values between a quarter and a half above the control. Other doses and runs of a compound stand elsewhere. T/C: endpoint of the treated group in % of that of the vehicle group. Some entries give survivors of the animals treated and no T/C: the source holds a T/C of zero for them, seemingly a mark for toxic or unscored doses. Some doses without a T/C left all or most animals alive at the check, yet need not have been tolerated: the source hardly ever lists a survival T/C far under the control, and the zero likely stands for such cases as well. Counts of survivors are from the toxicity check (mostly the fifth day) where no day follows; animals may have died later. Schedule codes are those of the source, taken here to give the interval after Q, in days (D) or hours (H), and the number of doses after X. Some schedules carry Z or #; the key to these is not given. Some doses were run more than once; their values stand side by side, smallest first. Where survival is the endpoint, the PubChem record calls one and a half times the control and up active, and a quarter to a half above the control has no call in these data; cut-offs in other NCI protocols can differ. Marks such as (2×) say how often a value occurs here. Some T/C values are followed by the survivors on the day toxicity was checked, most often the fifth; where none is given, no animal had died by that day.

The experiment deals with CD2F1 mice, L1210 leukemia ip, survival T/C. Nature of the experiment: NCI In Vivo Anticancer Drug Screen. Data for tumor model L1210 Leukemia (intraperitoneal) in CD2F1 (CDF1) mice. To be noted: T/C endpoint: mean survival time, higher T/C = longer survival. Put shortly: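 Vehicle-treated tumor-bearing mice served as controls (C) for compound-treated mice (T). Reported figure is T divided by C.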

The mark [1] stands for this setting: dose: 200.0 mg/kg/injection, schedule: Q01DX009 (ip), vehicle: saline with Tween-80.
Where [2] appears, read: dose: 300.0 mg/kg/injection, schedule: Q01DX001 (ip), vehicle: saline.

As for `N#Cc1c(NC(=S)NC2OC(COCc3ccccc3)C(OCc3ccccc3)C2OCc2ccccc2)ncn1Cc1ccccc1` (configuration not stated), for the setting “dose: 400.0 mg/kg/injection, schedule: Q04DX003 (ip), vehicle: acetone”, the survivor count was 6 of 6.

As for `Cc1ccc(C(=O)CC#N)c(C)c1`, under setting [1], the survivor count was 5 of 6.

Consider `CCCCCCCCCC(=O)NC(=S)Nc1ccc(Cl)cc1`, for which the T/C was 91, 95, 98 % of control (2×) (dose: 100.0 mg/kg/injection, schedule: Q01DX009 (ip), vehicle: saline with Tween-80) and 93 % of control [4 of 6 alive] under setting [1]. For the same compound, the survivor count runs as follows: under setting [1], 0 of 3, 1 of 3, 5 of 6; (dose: 400.0 mg/kg/injection, schedule: Q01DX009 (ip), vehicle: saline with Tween-80) 0 of 3 and 0 of 6.

`COc1cc2c(c(OC)c1OC)-c1ccc(OC)c(=O)cc1C(=O)CC2`: under “dose: 15.0 mg/kg/injection, schedule: Q01DX Z (ip), vehicle: saline”, the survivor count is listed as 6 of 6.

For `CCCCCCCCN1C(=O)CCC1=O`, the survivor count (dose: 400.0 mg/kg/injection, schedule: Q04DX002 (ip), vehicle: saline with Tween-80) was 0 of 3.

Turning to `O=[As](O)(c1ccccc1)C1CCCCC1O` (configuration not stated), the survivor count (dose: 50.0 mg/kg/injection, schedule: Q01DX001 (ip), vehicle: saline with Tween-80) is 3 of 6 and the survivor count (dose: 100.0 mg/kg/injection, schedule: Q01DX001 (ip), vehicle: saline with Tween-80) was 1 of 6.

`C/C=C1\CN2CCC34c5ccccc5N5C(=O)CCC(C1CC23)C54` (configuration not stated): the survivor count runs as follows: (dose: 75.0 mg/kg/injection, schedule: Q01DX001 (ip), vehicle: saline) 0 of 6; (dose: 80.0 mg/kg/injection, schedule: Q01DX001 (ip), vehicle: saline) 3 of 6; (dose: 150.0 mg/kg/injection, schedule: Q01DX001 (ip), vehicle: saline) 0 of 6; under setting [2], 0 of 6.

With `Fc1ccc2ccnnc2c1`, the survivor count (dose: 400.0 mg/kg/injection, schedule: Q01DX001 (ip), vehicle: other) is 0 of 6.

As for `COc1ccc(OC)c(NC(=O)OCC(F)(F)F)c1`, the survivor count under setting [1] is reported as 6 of 6.

For the compound `COc1ccc(N2C(N)=NC(N)=NC2(C)C)cc1`, the survivor count (dose: 100.0 mg/kg/injection, schedule: Q04DX002 (ip), vehicle: saline) was 0 of 3 and the survivor count (dose: 200.0 mg/kg/injection, schedule: Q04DX002 (ip), vehicle: saline) is listed as 0 of 3.

As to `CCCCCC(=O)/C=C/Sc1n[nH]c(=O)[nH]c1=O`, the survivor count reads like this: (dose: 100.0 mg/kg/injection, schedule: Q01DX005 (ip), vehicle: distilled water + Tween-80) 0 of 6; (dose: 200.0 mg/kg/injection, schedule: Q01DX005 (ip), vehicle: distilled water + Tween-80) 0 of 6.

Turning to `CC(C)(C)CC(C)(C)c1ccc(OCCOc2ccc(C(=O)Nc3ccc([N+](=O)[O-])cc3)cc2)cc1`, the survivor count (dose: 400.0 mg/kg/injection, schedule: Q01DX009 (ip), vehicle: Klucel (hydroxypropylcellulose) (HPC)) was 4 of 6.

With `CC#CN(CC)CC`, the survivor count under setting [2] is 3 of 6.
